In paper PMC9277888, “The testis-specific E3 ubiquitin ligase RNF133 is required for fecundity in mice” (BMC Biology, 2022):
No constants are given. Whether binding was seen depends on the method and setting. In cells and extracts the contact can be indirect. Some results given as binding are weak or reduced against the parent protein; the word gives no strength. Tags and fused reporters may be left off the sequences shown.

Protein sequences, listed by entry. Tags and fused reporters are not part of them.
UniProt O00762: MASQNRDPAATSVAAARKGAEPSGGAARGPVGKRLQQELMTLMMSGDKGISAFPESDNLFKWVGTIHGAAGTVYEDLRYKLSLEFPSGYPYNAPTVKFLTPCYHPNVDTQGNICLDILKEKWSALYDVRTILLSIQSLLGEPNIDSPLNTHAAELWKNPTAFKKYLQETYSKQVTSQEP

T1: human HA-UBE2J1 (human, UniProt Q9Y385 1-318)
T1 construct: E2 ubiquitin-conjugating enzyme UBE2J1, human, full-length open reading frame; also called pCAG-humanUBE2J1; source: HEK293 cells, transfected (pCAG1.1, Lipofectamine 3000), in lysate; not shown: HA, N-terminal, kept
T1 sequence (looked up): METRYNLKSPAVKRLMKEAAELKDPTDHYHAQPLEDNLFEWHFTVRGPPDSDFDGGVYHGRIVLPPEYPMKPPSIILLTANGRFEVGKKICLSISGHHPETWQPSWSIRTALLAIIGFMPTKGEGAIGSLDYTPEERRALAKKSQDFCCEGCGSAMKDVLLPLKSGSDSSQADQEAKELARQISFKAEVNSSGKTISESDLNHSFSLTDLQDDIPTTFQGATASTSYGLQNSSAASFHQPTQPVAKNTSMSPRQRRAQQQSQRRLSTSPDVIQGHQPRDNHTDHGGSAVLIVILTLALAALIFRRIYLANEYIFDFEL


Experiments:
human HA-UBE2C (human) = human HA-UBE2C (human) (UniProt O00762); assay: co-IP; HEK293 cells co-transfected with FLAG-tagged E3 and HA-tagged E2; lysed by sonication in Pierce IP buffer (25 mM Tris-HCl pH 7.4, 150 mM NaCl, 1 mM EDTA, 1% NP-40, 5% glycerol); anti-HA magnetic beads, 4 C, 1 h; washed with IP buffer with 2 mM DTT; immunoblot with anti-FLAG; band intensities by ImageJ (IP lane to input lane)
human HA-UBE2J1 = target: T1, human HA-UBE2J1; assay: as above

Row | binding (human HA-UBE2C (human)) | binding (human HA-UBE2J1) | Binder
1 | binds |  | human RNF133-FLAG (RING finger protein 133) (enzyme, UniProt Q8WVZ7 1-376, looked up, also called human RNF133-WT; RNF133 wild-type; source: HEK293 cells, transfected (pCAG1.1, Lipofectamine 3000), in lysate; not shown: FLAG, C-terminal, kept) MHLLKVGTWRNNTASSWLMKFSVLWLVSQNCCRASVVWMAYMNISFHVGNHVLSELGETGVFGRSSTLKRVAGVIVPPEGKIQNACNPNTIFSRSKYSETWLALIERGGCTFTQKIKVATEKGASGVIIYNVPGTGNQVFPMFHQAFEDVVVVMIGNLKGTEIFHLIKKGVLITAVVEVGRKHIIWMNHYLVSFVIVTTATLAYFIFYHIHRLCLARIQNRRWQRLTTDLQNTFGQLQLRVVKEGDEEINPNGDSCVICFERYKPNDIVRILTCKHFFHKNCIDPWILPHGTCPICKCDILKVLGIQVVVENGTEPLQVLMSNELPETLSPSEEETNNEVSPAGTSDKVIHVEENPTSQNNDIQPHSVVEDVHPSP
2 |  | no binding | human RNF151-FLAG (RING finger protein 151) (enzyme, UniProt Q2KHN1 1-245) MGGGYDLNLFASPPDSNFVCSVCHGVLKRPARLPCSHIFCKKCILRWLARQKTCPCCRKEVKRKKVVHMNKLRKTIGRLEVKCKNADAGCIVTCPLAHRKGHQDSCPFELTACPNEGCTSQVPRGTLAEHRQHCQQGSQQRCPLGCGATLDPAERARHNCYRELHNAWSVRQERRRPLLLSLLRRVRWLDQATSVVRRELAELSNFLEEDTALLEGAPQEEAEAAPEGNVGAEVVGEPRANIPCK
